Assay results: the supplement of paper PMC12764529
± gives the half width of the 95% confidence interval. For many entries, trypsin and chymotrypsin gave values far apart.

Tests used:
[1] = folding stability dG unfold from trypsin proteolysis; higher = more stable
How it was run: (§1)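 K50 was inferred by Bayesian fitting of sequencing counts obtained after protease digestion of designed mini-proteins. Unfolding free energy was derived by comparison with a sequence-predicted unfolded-state K50 and a shared folded-state K50, for each protease or both combined. The mini-proteins were under 80 residues, had no cysteine, were carried in a PA-tagged cDNA display construct, and were kept only if AlphaFold2 dimer inter-PAE exceeded 15.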

[2] = folding stability dG unfold from chymotrypsin proteolysis; higher = more stable
How it was run: as §1

[3] = folding stability dG unfold (combined trypsin and chymotrypsin); higher = more stable
How it was run: as §1

Row | Sequence | folding stability dG unfold [1] [kcal/mol] | folding stability dG unfold [2] [kcal/mol] | folding stability dG unfold [3] [kcal/mol]
1 | SAGGSAGGSAGGAAKPGQPVTIQIKWEFLKMRHERTPDGGRKMEMRYKIEIEILPGMPIKSAGGSAGGSAGG [r7_919_TrROS] | 2.31 ± 0.1 | 5.03 ± 0.26 | 4.67 ± 0.3
2 | SARRTLTLELELEFEFEGLGLRVRVRVELRLELVDGELRLELRVEIEVEPLPPPPPPLTPEQLRELARRSAG [r14_435_TrROS_Hall] | 0.713 ± 0.2 | 2.87 ± 0.13 | 2.51 ± 0.38
3 | SAGGDFEIVEITSVEYDPETNTVTVKVTIRNKETGKTFVAEFEVNPEDKNTVTVRIYDKDGKLIAEFPSAGG [r13_658_TrROS_Hall] | 3.28 ± 0.12 | 5.37 ± 0.22 | 5.5 ± 0.8
4 | SAGGKTVIIKAKSIEEALKAAIEEGKTVTIIVYDEETGRFYKVEIKVDKKTKKIEIVKVEVIPLPEEESAGG [r13_309_TrROS_Hall] | 1.65 ± 0.072 | 3.84 ± 0.079 | 3.35 ± 0.12
5 | SAGGMTVKLVAEFTLPNGAKVRVFEVTDADGSTHTVVEIEFRAPPPPEVELSDEELERRRKEEEARKSAGGS [r16_8_TrROS_Hall] | 1.97 ± 0.047 | 4.07 ± 0.046 | 3.58 ± 0.068
6 | SAGGEIEIVVDSEEEAKALAEELRKAGYEVEVEEVDGKWVLRIRRPPPPPLTEEERAKLAENPELAKKSAGG [r13_8_TrROS_Hall] | 0.953 ± 0.092 | 4.51 ± 0.11 | 3.94 ± 0.26
7 | SAGGSAGGSAGSSPSDLKVTLKVTLPDGTVLTVVMPAHATLDDFPADRPVTVTTLETKLESAGGSAGGSAGG [r11_997_JUSTAS] | 1.66 ± 0.084 | 0.656 ± 0.043 | 1.29 ± 0.12
8 | SEETLKIKVTVEKVKDKNGKYRYYVSIEVNGKKYKFEIKNLKEGEKKEFTFTIKLPKEKIKKIKISIKKPSA [r9_769_TrROS_Hall] | 3.31 ± 0.16 | 5.34 ± 0.12 | 5.23 ± 0.25
9 | SAGKPNGKKKEKTFKIKLKVKPKEKEKIEKFLKNLKIKLPGNAEAEFKFKVDPETDEIYVEVKIKVGGSAGG [r19_45_TrMRF] | 0.894 ± 0.1 | 4.28 ± 0.18 | 3.65 ± 0.35
10 | SAGGEVSVEVDPENGVVTVTATFYAPDGTLVGSLSFSFPVGEGILYIADVKYNPVEGKVEVVVKPLLGGSAG [r5_34_TrMRF] | 2.99 ± 0.18 | 5.37 ± 0.16 | 5.17 ± 0.34
11 | SAGGNVQISVEETDGGLYIQLTFRMPDPDPIKSFIENLGLPIKPTKIEPQRDPDNGREWVHATFRLPSAGGS [r16_699_TrROS] | 2.35 ± 0.17 | 5.16 ± 0.22 | 4.49 ± 0.44
12 | SAGGSAGGVTINFPDGVTIMVDPGTGKIYIMNPNGYIFKFTIERKPNEWKLKIEPIKPIPPDDFSAGGSAGG [r6_324_TrROS] | 2.55 ± 0.085 | 3.7 ± 0.091 | 3.16 ± 0.19
13 | SAGGSAGGSAKKKPKKIKKYEIEVEILVKDPKTNKYYKIKLKAEVVEYKGKLYLKIEAEIESAGGSAGGSAG [r3_409_TrROS_Hall] | 2.92 ± 0.18 | 5.15 ± 0.17 | 5.13 ± 0.3
14 | SAGGKKPPKVEEIEIEIPGLKIKFVRLENGIIRAEIFNKDGKLVAEFEFTLKDGRKLTLTLELKKKKKSAGG [r13_584_TrROS_Hall] | 1.45 ± 0.07 | 3.88 ± 0.36 | 2.86 ± 0.53
15 | SAGGSAGGSAMPENMKVIEIEINGKKYKIVESKDGKLYIFEYDKKTKKVEVRTITLEELLSLSAGGSAGGSA [r18_247_TrROS_Hall] | 2.21 ± 0.082 | 4.66 ± 0.12 | 4.2 ± 0.2
16 | KKIKEITIEINGLKVKITKTDDTLTIEIEIYNKKTGKKVTITAKVKKIDKKTGKIVIEAKITLPPGAKLLPS [r1_234_TrROS_Hall] | 1.67 ± 0.089 | 3.88 ± 0.18 | 3.33 ± 0.29
17 | MRRFEFPETGLVVPVVPSPDGRYRVRIYRPGGELVLEVELPDLPIPEGSDAEIRIPLKDLPPDLVTFVEPES [r1_263_TrMRF] | 0.819 ± 0.054 | 1.46 ± 0.09 | 1.21 ± 0.11
18 | SAGGPNVPIRIRVTIERQDPDGEPKDFEFPIEYPMPPDDPEQAKEQIEELAESIAEKHGYKVEIEIEPSAGG [r13_853_TrROS] | -0.664 ± 0.18 | -0.45 ± 0.29 | -0.627 ± 0.55

Whole records from above:
SAGGSAGGSAMPENMKVIEIEINGKKYKIVESKDGKLYIFEYDKKTKKVEVRTITLEELLSLSAGGSAGGSA [r18_247_TrROS_Hall] reads folding stability dG unfold [1] [kcal/mol]: 2.21 ± 0.082; folding stability dG unfold [2] [kcal/mol]: 4.66 ± 0.12; folding stability dG unfold [3] [kcal/mol]: 4.2 ± 0.2
SARRTLTLELELEFEFEGLGLRVRVRVELRLELVDGELRLELRVEIEVEPLPPPPPPLTPEQLRELARRSAG [r14_435_TrROS_Hall] reads folding stability dG unfold [1] [kcal/mol]: 0.713 ± 0.2; folding stability dG unfold [2] [kcal/mol]: 2.87 ± 0.13; folding stability dG unfold [3] [kcal/mol]: 2.51 ± 0.38
